Binding data for 4 molecules are collected here from paper doi:10.1101/2022.05.31.493820.

Holding throughout (assay): affinity purification with mass spectrometry
The target of assay [1] is T1, PETO (Cre12.g558900) (Chlamydomonas reinhardtii) (UniProt Q9LLC6).
T1 sequence: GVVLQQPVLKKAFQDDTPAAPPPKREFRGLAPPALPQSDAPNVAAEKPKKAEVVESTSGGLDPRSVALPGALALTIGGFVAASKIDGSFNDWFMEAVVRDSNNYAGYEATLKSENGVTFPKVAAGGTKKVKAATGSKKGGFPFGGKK

Assay [2] has as its target cyclic electron flow regulator ANR1 (Cre03.g164000) (Chlamydomonas reinhardtii).
Assay [3] addresses RRM16 (Cre03.g175800) (Chlamydomonas reinhardtii).

These are yes or no findings as the source states them, for the method shown. In cells and extracts the contact can be indirect. A yes stands for co-enrichment or nearness to the bait. Other partners may have been found.

In the case of “cyclic electron flow regulator ANR1 (Cre03.g164000) (Chlamydomonas reinhardtii)”, the binding entry in assay [1] is “binds”.

B1: Cytochrome b6f subunit IV (PetD) (protein, UniProt P23230 1-160)
chain: MSVTKKPDLSDPVLKAKLAKGMGHNTYGEPAWPNDLLYMFPVVILGTFACVIGLSVLDPAAMGEPANPFATPLEILPEWYFYPVFQILRVVPNKLLGVLLMAAVPAGLITVPFIESINKFQNPYRRPIATILFLLGTLVAVWLGIGSTFPIDISLTLGLF
In the case of B1, the binding entry in assay [2] is “binds”.

B2: chloroplast ribosome small subunit component rps2-1 (protein, UniProt O47027 1-570)
chain: MLNKKPPYLILSLIMIKTQKSKQTAVRKLIPGNVISLKITAMGANNVGINEFTFGIPVLVPNAKLGETVQAKVLKILASKKIAIAKLIKVVTKTNATETNNLAALTPGATLDVTITKLGPNSTGIADLGNNYNNVNKLIVKKSAITIGEKVTVLVTRVKNGYAFGVATVSTQRLNQVSTSLTQNSFKGTKFTVVLPKNAKRYLKHLVFKVTTATAQNLSVNGFEQTLFKKGAVGLDTRINNQNGSAGNLTTVPTNTILFVKPNLGAKLGDKVQIQIIKFASIENGTLTYNVAIAKIIKLNPLSTPQKKAFVRSSLRQMLKSGMHYGEKAIKCNARMKNYVWTRKKGTDTKVEARPLIKKGRNLINLLKTRRCLTKALAQLTKYAAKGKTFLFVGTKKAASGLVARAALFSKKAFFVNTRWLGGMLTNWKTILKSISKIRPILKEKQMIIKDILEKRQTIKARLIQKALLLRKKSKLMLKKGRLLIQMLKQNNSNSTSGKQAVRFLFTEKTNLLNTKRKEFVSKGILLLEKRQQLVVKRQELITQSQTLKSKAIQLTNTISQFIKQFNLFT
Take B2: the binding entry in assay [3] is “binds”.

B3: chloroplast ribosome small subunit component rps4 (protein, UniProt P48270 1-257)
chain: MSRYLGPRLRVIRRIGKLRGFTRKKPFRRVFKGFGGFKGKVIPPGQHGLTKLLKTRPYDSSESDYLIRLKVKQRLRFNYGITERQLVNYVRKAKKIKESTGQVLLQFLEMRLDNIVFRLNMAPTIPAARQLISHGHIRVNNKKVNIPSYMCKPKDVISVAMKQRSLQLVNKNLQEYYRRMRFYKKRLEKTLPFILLKIKPLGLTSVTAAVELITKGNVRVNNKSVKTPNYICRPRDTVSLRTKQGIKKVFLKNYLKG
For the molecule B3, in assay [3], the binding result was “binds”.
